The values that follow come from PMC11380579.

Protein sequences, listed by entry. Tags and fused reporters are not part of them. Lines headed by an entry give the natural chain unless they say otherwise; changes in a name come on top. Chains listed by the source or under a name are the forms on record and can include a tag or linker.
UniProt Q9P7T4: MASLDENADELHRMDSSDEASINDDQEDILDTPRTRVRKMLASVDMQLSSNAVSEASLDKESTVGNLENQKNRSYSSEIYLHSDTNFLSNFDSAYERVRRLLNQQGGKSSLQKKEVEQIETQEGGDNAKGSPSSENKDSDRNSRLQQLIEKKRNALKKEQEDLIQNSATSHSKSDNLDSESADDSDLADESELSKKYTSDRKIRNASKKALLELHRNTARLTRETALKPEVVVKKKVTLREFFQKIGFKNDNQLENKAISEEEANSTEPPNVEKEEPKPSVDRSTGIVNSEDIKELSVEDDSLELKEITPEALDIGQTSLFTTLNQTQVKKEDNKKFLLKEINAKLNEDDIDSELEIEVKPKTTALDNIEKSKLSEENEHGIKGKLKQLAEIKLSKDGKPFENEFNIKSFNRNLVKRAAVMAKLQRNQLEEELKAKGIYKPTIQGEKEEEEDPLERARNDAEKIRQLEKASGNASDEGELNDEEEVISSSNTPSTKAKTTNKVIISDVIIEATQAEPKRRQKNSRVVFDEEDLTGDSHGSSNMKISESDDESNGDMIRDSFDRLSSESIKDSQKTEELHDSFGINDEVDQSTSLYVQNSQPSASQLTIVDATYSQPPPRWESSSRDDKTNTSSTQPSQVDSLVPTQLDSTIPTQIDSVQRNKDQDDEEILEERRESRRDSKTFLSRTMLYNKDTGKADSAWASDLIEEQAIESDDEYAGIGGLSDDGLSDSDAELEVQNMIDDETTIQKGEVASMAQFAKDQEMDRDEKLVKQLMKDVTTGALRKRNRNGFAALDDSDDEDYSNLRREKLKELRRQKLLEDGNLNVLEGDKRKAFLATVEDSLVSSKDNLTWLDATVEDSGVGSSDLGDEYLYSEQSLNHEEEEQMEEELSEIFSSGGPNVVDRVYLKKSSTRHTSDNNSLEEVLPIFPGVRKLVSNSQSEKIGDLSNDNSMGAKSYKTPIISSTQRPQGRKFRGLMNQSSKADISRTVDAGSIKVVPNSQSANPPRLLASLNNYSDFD
Mrc1-3A (Q9P7T4, form named): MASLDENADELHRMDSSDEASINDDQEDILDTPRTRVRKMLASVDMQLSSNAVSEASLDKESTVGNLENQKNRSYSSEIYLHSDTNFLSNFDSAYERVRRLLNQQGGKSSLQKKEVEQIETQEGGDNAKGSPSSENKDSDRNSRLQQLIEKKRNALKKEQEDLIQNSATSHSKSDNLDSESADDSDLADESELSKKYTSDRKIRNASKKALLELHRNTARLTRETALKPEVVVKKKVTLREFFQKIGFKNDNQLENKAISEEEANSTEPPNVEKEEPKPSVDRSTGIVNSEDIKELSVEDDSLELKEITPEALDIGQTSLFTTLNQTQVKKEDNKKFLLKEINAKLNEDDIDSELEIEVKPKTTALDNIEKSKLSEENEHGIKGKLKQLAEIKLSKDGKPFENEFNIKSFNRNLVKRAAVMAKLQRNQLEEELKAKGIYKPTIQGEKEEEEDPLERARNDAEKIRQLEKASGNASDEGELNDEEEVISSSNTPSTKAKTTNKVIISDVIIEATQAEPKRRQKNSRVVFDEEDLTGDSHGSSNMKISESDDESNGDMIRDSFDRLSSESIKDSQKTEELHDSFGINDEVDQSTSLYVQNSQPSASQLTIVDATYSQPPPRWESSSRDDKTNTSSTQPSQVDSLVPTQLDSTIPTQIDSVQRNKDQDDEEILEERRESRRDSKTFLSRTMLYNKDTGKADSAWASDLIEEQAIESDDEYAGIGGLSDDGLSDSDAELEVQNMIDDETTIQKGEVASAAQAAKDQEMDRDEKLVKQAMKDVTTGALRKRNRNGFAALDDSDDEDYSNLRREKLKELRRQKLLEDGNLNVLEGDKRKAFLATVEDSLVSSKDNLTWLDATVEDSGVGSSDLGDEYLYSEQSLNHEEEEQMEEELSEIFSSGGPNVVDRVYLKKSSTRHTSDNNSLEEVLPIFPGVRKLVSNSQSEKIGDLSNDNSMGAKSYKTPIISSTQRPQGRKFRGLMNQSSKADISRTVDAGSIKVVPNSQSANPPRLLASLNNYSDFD

These are yes or no findings as the source states them, for the method shown. In cells and extracts the contact can be indirect. A yes stands for co-enrichment or nearness to the bait. Other partners may have been found. Where a sequence is shown, tags or fusion partners need not be part of it.

The assay has as its target T1, TAP-tagged Sld5 (S. pombe) (UniProt Q9P7C8).
T1 sequence: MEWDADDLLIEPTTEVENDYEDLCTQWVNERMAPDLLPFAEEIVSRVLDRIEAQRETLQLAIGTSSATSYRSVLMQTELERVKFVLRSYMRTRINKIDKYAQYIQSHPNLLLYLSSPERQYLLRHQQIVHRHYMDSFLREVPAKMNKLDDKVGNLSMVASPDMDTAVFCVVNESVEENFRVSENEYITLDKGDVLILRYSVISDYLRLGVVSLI
Nature of the assay: affinity purification with mass spectrometry; TAP-tagged Sld5 precipitated on rabbit IgG Dynabeads from Benzonase-treated lysate of mrc1+, mrc1-W620STOP or mrc1-3A S. pombe cells; label-free mass spectrometry.

With Mrc1 (from UniProt Q9P7T4 1-1019), the binding entry was “binds”.

With Mrc1-3A (from UniProt Q9P7T4 1-1019), the binding result is listed as “binds”.

For “truncated Mrc1-(1–620) (mrc1-W620STOP cells) (from UniProt Q9P7T4 1-620) (domain or fragment)”, the binding result is on record as “binds”.
